Reference: the supplement of paper PMC6078165

System: MDAMB231
Experiment: relative JC-1 red fluorescence (viability) vs pre-drug, coculture with fibroblast (fraction); higher = more viable cancer cells
Protocol: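 JC-1 labelled TNBC cells cocultured 1:1 (1,500 cells each) with CellTrace Violet stained primary or stromal fibroblasts in 384-well plates in FluoroBrite medium, treated with one of 42 anticancer drugs at 0.1, 1, 10 or 100 uM. JC-1 red fluorescence (mitochondrial integrity in cancer cells only) was read by plate reader every 8 h for 72 h. Values are normalised to each well's pre-drug value. The stock of one drug was tenfold lower, so its dose labels may be too high.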

O=c1[nH]cc(F)c(=O)[nH]1 [Fluorouracil]
relative JC-1 red fluorescence
Conditions | 8 h | 16 h | 24 h | 32 h | 40 h | 48 h | 56 h | 64 h | 72 h
0.1 µM, coculture fibroblast: C12385 | 0.766 | 0.7088 | 0.642 | 0.598 | 0.535 | 0.503 | 0.459 | 0.456 | 0.435
0.1 µM, coculture fibroblast: H6013 | 0.881 | 0.785 | 0.7501 | 0.7411 | 0.699 | 0.679 | 0.653 | 0.644 | 0.604
0.1 µM, coculture fibroblast: H6019 | 0.812 | 0.723 | 0.661 | 0.653 | 0.617 | 0.594 | 0.554 | 0.542 | 0.499
0.1 µM, coculture fibroblast: H6076 | 0.897 | 0.788 | 0.727 | 0.697 | 0.666 | 0.615 | 0.588 | 0.573 | 0.551
0.1 µM, coculture fibroblast: H6231 | 0.893 | 0.791 | 0.701 | 0.642 | 0.57895 | 0.54734 | 0.506 | 0.487 | 0.4611
0.1 µM, coculture fibroblast: HADF | 0.85 | 0.805 | 0.731 | 0.70543 | 0.657 | 0.63 | 0.603 | 0.583 | 0.541
0.1 µM, coculture fibroblast: HCFa | 0.88 | 0.8 | 0.742 | 0.708 | 0.653 | 0.619 | 0.587 | 0.563 | 0.521
0.1 µM, coculture fibroblast: HCPF | 0.926 | 0.847 | 0.777 | 0.762 | 0.711 | 0.684 | 0.649 | 0.618 | 0.604
0.1 µM, coculture fibroblast: HHSteC | 0.916 | 0.847 | 0.794 | 0.75 | 0.704 | 0.67 | 0.6164 | 0.60153 | 0.55603
0.1 µM, coculture fibroblast: HMF | 0.888 | 0.788 | 0.728 | 0.687 | 0.653 | 0.611 | 0.58 | 0.562 | 0.549
0.1 µM, coculture fibroblast: HPFa | 0.969 | 0.9248 | 0.8742 | 0.821 | 0.805 | 0.764 | 0.707 | 0.684 | 0.634
0.1 µM, coculture fibroblast: HUF | 0.8721 | 0.766 | 0.742 | 0.64 | 0.573 | 0.546 | 0.488 | 0.48 | 0.46
0.1 µM, coculture fibroblast: Hs5 | 0.853 | 0.76 | 0.713 | 0.676 | 0.6504 | 0.59717 | 0.5665 | 0.546 | 0.5144
0.1 µM, coculture fibroblast: Hs27A | 0.882 | 0.818 | 0.773 | 0.748 | 0.691 | 0.628 | 0.626 | 0.595 | 0.542
0.1 µM, coculture fibroblast: Hs343T | 0.89 | 0.768 | 0.71033 | 0.676 | 0.623 | 0.582 | 0.528 | 0.503 | 0.48
0.1 µM, coculture fibroblast: WS1 | 0.7522 | 0.661 | 0.603 | 0.526 | 0.478 | 0.457 | 0.42 | 0.412 | 0.389
1 µM, coculture fibroblast: C12385 | 0.7472 | 0.686 | 0.6656 | 0.609 | 0.548 | 0.522 | 0.487 | 0.484 | 0.471
1 µM, coculture fibroblast: H6013 | 0.888 | 0.889 | 0.86 | 0.855 | 0.833 | 0.688 | 0.659 | 0.79 | 0.736
1 µM, coculture fibroblast: H6019 | 0.745 | 0.673 | 0.615 | 0.581 | 0.531 | 0.506 | 0.463 | 0.443 | 0.405
1 µM, coculture fibroblast: H6076 | 0.929 | 0.847 | 0.79 | 0.778 | 0.734 | 0.691 | 0.673 | 0.668 | 0.654
1 µM, coculture fibroblast: H6231 | 0.886 | 0.803 | 0.788 | 0.735 | 0.67 | 0.74 | 0.699 | 0.704 | 0.641
1 µM, coculture fibroblast: HADF | 0.893 | 0.82 | 0.782 | 0.743 | 0.705 | 0.669 | 0.643 | 0.621 | 0.577
1 µM, coculture fibroblast: HCFa | 0.894 | 0.82413 | 0.778 | 0.745 | 0.693 | 0.65 | 0.612 | 0.573 | 0.529
1 µM, coculture fibroblast: HCPF | 0.874 | 0.7802 | 0.686 | 0.645 | 0.585 | 0.547 | 0.506 | 0.478 | 0.45
1 µM, coculture fibroblast: HHSteC | 0.8857 | 0.843 | 0.794 | 0.734 | 0.687 | 0.654 | 0.611 | 0.579 | 0.535
1 µM, coculture fibroblast: HMF | 0.879 | 0.76 | 0.69 | 0.6535 | 0.6 | 0.56 | 0.522 | 0.507 | 0.49
1 µM, coculture fibroblast: HPFa | 0.9412 | 0.871 | 0.812 | 0.743 | 0.709 | 0.663 | 0.604 | 0.573 | 0.513
1 µM, coculture fibroblast: HUF | 0.863 | 0.785 | 0.804 | 0.694 | 0.631 | 0.613 | 0.569 | 0.564 | 0.541
1 µM, coculture fibroblast: Hs5 | 0.906 | 0.804 | 0.763 | 0.73 | 0.693 | 0.636 | 0.604 | 0.577 | 0.552
1 µM, coculture fibroblast: Hs27A | 0.8727 | 0.794 | 0.757 | 0.7211 | 0.6751 | 0.628 | 0.6091 | 0.5879 | 0.5317
1 µM, coculture fibroblast: Hs343T | 0.9114 | 0.7941 | 0.719 | 0.678 | 0.618 | 0.562 | 0.512 | 0.491 | 0.455
1 µM, coculture fibroblast: WS1 | 0.7659 | 0.7 | 0.629 | 0.573 | 0.518 | 0.491 | 0.445 | 0.426 | 0.4

The reference is the same well before dosing, and untreated signal decays as well.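 Fibroblast labels denote human fibroblasts, mainly primary ones from uterus (C12385, HUF), lung (H6013), bone (Hs27A), adrenal (HADF) and skin (WS1), plus mammary HMF and breast cancer-associated Hs343T. Cancer cells are basal-like or mesenchymal-like triple-negative breast cancer lines. A hit is a response shift exceeding 3x replicate standard deviation. The tissue of the other fibroblasts is not given here.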
